The list does not hold the whole screen: it is rich in T/C values a quarter to a half above the control, in often repeated tests (any T/C) and in doses without a T/C. Further doses and runs are listed elsewhere. T/C: endpoint of the treated group in % of that of the vehicle group. Some doses have a count of surviving animals in place of a T/C: the source holds a T/C of zero for them, seemingly a mark for toxic or unscored doses. Some survivor counts are full or nearly so, which does not show that the dose was tolerated: the source hardly ever lists a survival T/C far under the control, and the zero likely stands for such cases as well. Counts of survivors are from the toxicity check (mostly the fifth day) where no day follows; animals may have died later. Schedules are NCI's codes, taken here to give the interval after Q, in days (D) or hours (H), and the number of doses after X. Some entries were tested several times; their values stand side by side, smallest first. For survival time, this PubChem deposit counts one and a half times the control or more as active, and values a quarter to a half above the control carry no call in these data; other NCI protocols may use other cut-offs. Some T/C values carry the count of animals alive at the toxicity check (mostly the fifth day); without a count, all were alive then. Signs of the kind (2×) count equal records among those shown. Starred links: 1 amine or outer side, 2 acyl side, 3 side chain; linkers in the order of their positions; H or OH if unused. Positions of bridges follow the written chain, without caps; N, C: chain ends. Non-standard residues stand in square brackets, D forms with d. Residues, ends and D or L forms follow the SMILES beside them. Chains are numbered I, II in the order given. Actinocin(9to1) = Cc1c2oc3c(C)ccc(C(=O)[*:1])c3nc-2c(C(=O)[*:2])c(N)c1=O; aThr = C[C@H](O)[C@H](N)C(=O)O; NMeV = CN[C@H](C(=O)O)C(C)C; Sar = CNCC(=O)O
System: BDF1 mice, P815 leukemia ip, survival T/C
Assay: NCI In Vivo Anticancer Drug Screen. Data for tumor model P815 Mast Cell Leukemia (Ascitic) (intraperitoneal) in B6D2F1 (BDF1) mice
Details: higher T/C = longer survival
Method: The antitumor activity of compounds was measured in mice bearing transplantable tumors. Survival or tumor size were measured and the results are expressed as the measurement made in the treated group (T) divided by the measurement made in the vehicle treated control group (C). The tumor model used in this assay is P815 Mast Cell Leukemia (Ascitic) (intraperitoneal) in B6D2F1 (BDF1) mice

[1] = T/C endpoint: survival time, mean or median, dose: 50.0 mg/kg/injection, schedule: Q01DX015 (ip), vehicle: carboxymethylcellulose (CMC)
[2] = T/C endpoint: survival time, mean or median, dose: 2.0 mg/kg/injection, schedule: Q01DX010 (ip), vehicle: other
[3] = T/C endpoint: survival time, mean or median, dose: 4.0 mg/kg/injection, schedule: Q01DX010 (ip), vehicle: other
[4] = T/C endpoint: survival time, mean or median, dose: 8.0 mg/kg/injection, schedule: Q01DX010 (ip), vehicle: other
[5] = T/C endpoint: survival time, mean or median, dose: 16.0 mg/kg/injection, schedule: Q01DX010 (ip), vehicle: other
[6] = T/C endpoint: survival time, mean or median, dose: 32.0 mg/kg/injection, schedule: Q01DX010 (ip), vehicle: other
[7] = T/C endpoint: survival time, mean or median, dose: 160.0 mg/kg/injection, schedule: Q01DX010 (ip), vehicle: saline

CN=C(NC)c1ccc(NC(=O)Nc2ccc(NC(=O)Nc3ccc(C(=NC)NC)cc3)cc2)cc1
survivor count (T/C endpoint: survival time, mean or median, dose: 30.0 mg/kg/injection, schedule: Q01DX010 (ip), vehicle: saline): 1 of 6
survivor count (T/C endpoint: survival time, mean or median, dose: 45.0 mg/kg/injection, schedule: Q01DX010 (ip), vehicle: saline): 0 of 6

COc1ccc(C[n+]2cc([O-])on2)cc1
T/C [1]: 125 % of control

O=C(Nc1ccc(C2=NCCCN2)cc1)c1ccc(NC(=O)c2ccc(C3=NCCCN3)cc2)cc1
T/C (T/C endpoint: survival time, mean or median, dose: 1.0 mg/kg/injection, schedule: Q01DX010 (ip), vehicle: other): 95, 100, 105, 111 % of control
T/C [2]: 122, 126, 127, 132 % of control
T/C [3]: 167 [5 of 6 alive], 173, 183, 242 % of control
T/C [4]: 100, 116, 145 % of control
survivor count [4]: 0 of 6
T/C [5]: 504 % of control [4 of 6 alive]
survivor count [5]: 5 of 6 and 6 of 6

O=C(Nc1ccc(C2=NCCN2)cc1)c1ccc(C(=O)Nc2ccc(C3=NCCN3)cc2)c(Cl)c1
T/C [2]: 110 (2×), 111, 120 % of control
T/C (T/C endpoint: survival time, mean or median, dose: 3.0 mg/kg/injection, schedule: Q01DX015 (ip), vehicle: carboxymethylcellulose (CMC)): 133 % of control [9 of 10 alive]
T/C [3]: 116, 126, 127, 131 % of control
T/C [4]: 163, 194, 202, 300 % of control
T/C [5]: 250, 300 (2×), 308 % of control
T/C [6]: 102 and 219 % of control
survivor count [6]: 6 of 6

O=C(O)c1[nH]c(=O)[nH]c(=O)c1F
T/C (T/C endpoint: survival time, mean or median, dose: 6.0 mg/kg/injection, schedule: Q01DX015 (ip), vehicle: carboxymethylcellulose (CMC)): 132 % of control
survivor count (T/C endpoint: survival time, mean or median, dose: 25.0 mg/kg/injection, schedule: Q01DX015 (ip), vehicle: carboxymethylcellulose (CMC)): 10 of 10
survivor count [1]: 10 of 10

Oc1ccccc1C(Nc1nc2ccccc2s1)c1ccc2cccnc2c1O (stereo not given)
survivor count (T/C endpoint: survival time, mean or median, dose: 500.0 mg/kg/injection, schedule: Q01DX015 (ip), vehicle: other): 9 of 10

Cc1cc2nc3c(=O)[nH]c(=O)nc-3n(CC(O)C(O)C(O)C(O)CO)c2cc1C (stereo not given)
survivor count [1]: 10 of 10
survivor count (T/C endpoint: survival time, mean or median, dose: 100.0 mg/kg/injection, schedule: Q01DX015 (ip), vehicle: carboxymethylcellulose (CMC)): 10 of 10
survivor count (T/C endpoint: survival time, mean or median, dose: 200.0 mg/kg/injection, schedule: Q01DX015 (ip), vehicle: carboxymethylcellulose (CMC)): 10 of 10
survivor count (T/C endpoint: survival time, mean or median, dose: 400.0 mg/kg/injection, schedule: Q01DX015 (ip), vehicle: carboxymethylcellulose (CMC)): 9 of 10

C1CN1c1nc(N2CC2)nc(N2CC2)n1
T/C (T/C endpoint: survival time, mean or median, dose: 0.5 mg/kg/injection, schedule: Q01DX010 (ip), vehicle: saline): 127 % of control
survivor count (T/C endpoint: survival time, mean or median, dose: 1.0 mg/kg/injection, schedule: Q01DX010 (ip), vehicle: saline): 6 of 6
T/C (T/C endpoint: survival time, mean or median, dose: 500.0 micrograms/kg/injection, schedule: Q01DX010 (ip), vehicle: saline): 144 % of control

Cc1c2oc3c(C)ccc(C(=O)N[C@@H]4C(=O)N[C@H](C(C)C)C(=O)N5CCC[C@H]5C(=O)N(C)CC(=O)N(C)[C@@H](C(C)C)C(=O)O[C@H]4C)c3nc-2c(C(=O)N[C@@H]2C(=O)N[C@H](C(C)C)C(=O)N3CCC[C@H]3C(=O)N(C)CC(=O)N(C)[C@@H](C(C)C)C(=O)O[C@H]2C)c(N)c1=O (I: [aThr][dV]P[Sar][NMeV] / II: [aThr][dV]P[Sar][NMeV]; ester I:1-I:C, II:1-II:C; linker I:N-II:N via Actinocin(9to1))
T/C (T/C endpoint: median survival time, dose: 108.0 micrograms/kg/injection, schedule: Q04DX003 (ip), vehicle: saline + alcohol): 131 % of control
T/C (T/C endpoint: median survival time, dose: 216.0 micrograms/kg/injection, schedule: Q01DX001 (ip), vehicle: saline + alcohol): 127 % of control
T/C (T/C endpoint: median survival time, dose: 360.0 micrograms/kg/injection, schedule: Q01DX001 (ip), vehicle: saline + alcohol): 127 % of control
T/C (T/C endpoint: median survival time, dose: 600.0 micrograms/kg/injection, schedule: Q01DX001 (ip), vehicle: saline + alcohol): 125 % of control
survivor count (T/C endpoint: median survival time, dose: 1000.0 micrograms/kg/injection, schedule: Q01DX001 (ip), vehicle: saline + alcohol): 5 of 8

C=CC(CN1CC1)OC(C)=O (stereo not given)
survivor count (T/C endpoint: survival time, mean or median, dose: 16.0 mg/kg/injection, schedule: Q01DX010 (ip), vehicle: saline): 5 of 6

C[C@@H]1C[C@H]2CC[C@H](O2)[C@H](C)C(=O)O[C@@H](C)C[C@@H]2CC[C@@H](O2)[C@@H](C)C(=O)O[C@H](C)C[C@H]2CC[C@H](O2)[C@H](C)C(=O)O[C@@H](C)C[C@@H]2CC[C@@H](O2)[C@@H](C)C(=O)O1
survivor count (T/C endpoint: survival time, mean or median, dose: 45.0 mg/kg/injection, schedule: Q01DX015 (ip), vehicle: other): 10 of 10
survivor count (T/C endpoint: survival time, mean or median, dose: 90.0 mg/kg/injection, schedule: Q01DX015 (ip), vehicle: other): 10 of 10
survivor count (T/C endpoint: survival time, mean or median, dose: 180.0 mg/kg/injection, schedule: Q01DX015 (ip), vehicle: other): 10 of 10
survivor count (T/C endpoint: survival time, mean or median, dose: 360.0 mg/kg/injection, schedule: Q01DX015 (ip), vehicle: other): 10 of 10

N#CCSc1ncnc2nc[nH]c12
survivor count (T/C endpoint: survival time, mean or median, dose: 120.0 mg/kg/injection, schedule: Q01DX010 (ip), vehicle: saline): 5 of 6

O=C(O)CC(NC(=O)CP(=O)(O)O)C(=O)O (stereo not given)
survivor count (T/C endpoint: median survival time, dose: 800.0 mg/kg/injection, schedule: Q04DX003 (ip), vehicle: saline): 8 of 8

O=C(O)CCCc1ccc(N(CCCl)CCCl)cc1
survivor count (T/C endpoint: survival time, mean or median, dose: 25.0 mg/kg/injection, schedule: Q01DX010 (ip), vehicle: saline): 0 of 6

O=C(Nc1ccc(C2=NCCN2)cc1)c1ccc(C(=O)Nc2ccc(C3=NCCN3)cc2)c([N+](=O)[O-])c1
T/C (T/C endpoint: survival time, mean or median, dose: 6.0 mg/kg/injection, schedule: Q01DX010 (ip), vehicle: saline): 141 % of control
T/C (T/C endpoint: survival time, mean or median, dose: 8.0 mg/kg/injection, schedule: Q01DX010 (ip), vehicle: saline): 136 % of control
survivor count (T/C endpoint: survival time, mean or median, dose: 12.0 mg/kg/injection, schedule: Q01DX010 (ip), vehicle: saline): 5 of 6
survivor count (T/C endpoint: survival time, mean or median, dose: 18.0 mg/kg/injection, schedule: Q01DX010 (ip), vehicle: saline): 5 of 6 and 6 of 6

N=C(N)SCc1c2ccccc2c(CSC(=N)N)c2ccccc12
T/C (T/C endpoint: survival time, mean or median, dose: 2.5 mg/kg/injection, schedule: Q01DX010 (ip), vehicle: saline): 140 % of control
T/C (T/C endpoint: survival time, mean or median, dose: 5.0 mg/kg/injection, schedule: Q01DX010 (ip), vehicle: saline): 125 % of control
T/C (T/C endpoint: survival time, mean or median, dose: 20.0 mg/kg/injection, schedule: Q01DX010 (ip), vehicle: saline): 145 % of control

CC1CN=C(c2ccc(NC(=O)c3cccc(C(=O)Nc4ccc(C5=NCC(C)N5)cc4)c3)cc2)N1 (stereo not given)
T/C (T/C endpoint: survival time, mean or median, dose: 40.0 mg/kg/injection, schedule: Q01DX010 (ip), vehicle: saline): 125 % of control

COc1cc(-c2ccc(Nc3ccccc3C(=O)O)c(OC)c2)ccc1Nc1ccccc1C(=O)O
T/C (T/C endpoint: survival time, mean or median, dose: 100.0 mg/kg/injection, schedule: Q01DX010 (ip), vehicle: saline): 132 % of control
survivor count (T/C endpoint: survival time, mean or median, dose: 150.0 mg/kg/injection, schedule: Q01DX010 (ip), vehicle: saline): 5 of 6

O=C(Nc1ccc(C2=NCCN2)cc1)c1cc(C(=O)Nc2ccc(C3=NCCN3)cc2)cc([N+](=O)[O-])c1
survivor count (T/C endpoint: survival time, mean or median, dose: 512.0 mg/kg/injection, schedule: Q01DX010 (ip), vehicle: saline): 6 of 6

OCC1OC(n2cnc3c(=S)nc[nH]c32)C(O)C1O (stereo not given)
T/C [7]: 125 % of control
survivor count [7]: 2 of 6

Cc1nc(CON)cs1
survivor count (T/C endpoint: median survival time, dose: 200.0 mg/kg/injection, schedule: Q01DX015 (ip), vehicle: saline): 7 of 10
